Our source for the Ki values is BindingDB's records for PubMed 8450829 (Cnrs, 1993).

By UniProt entry, the sequences of proteins in these tests, tags left out.
UniProt P31387, whole entry: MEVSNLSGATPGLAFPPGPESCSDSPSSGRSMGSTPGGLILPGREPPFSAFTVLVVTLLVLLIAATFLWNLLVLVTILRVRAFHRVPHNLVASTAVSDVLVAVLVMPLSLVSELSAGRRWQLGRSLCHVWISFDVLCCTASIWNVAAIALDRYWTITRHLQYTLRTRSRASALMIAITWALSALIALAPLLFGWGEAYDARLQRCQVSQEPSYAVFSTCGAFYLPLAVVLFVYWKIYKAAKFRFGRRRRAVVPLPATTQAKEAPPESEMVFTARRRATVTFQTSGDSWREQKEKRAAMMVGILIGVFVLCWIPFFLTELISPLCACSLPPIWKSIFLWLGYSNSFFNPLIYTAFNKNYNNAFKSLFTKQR

In the assay the target is 5-hydroxytryptamine receptor 5B (Mus musculus, UniProt P31387).

The Ki is a dissociation constant, usually derived from enzyme kinetics or from competition with a known ligand. A higher Ki goes with weaker binding. `CC(C)NC[C@H](O)COc1cccc2ccccc12` [Propanolol,(+/-)] gave an inhibition constant Ki of 6.31 µM.
